Test results as given in publication PMC4882601, “Binding of Human Fibrinogen to MRP Enhances Streptococcus suis Survival in Host Blood in a αXβ2 Integrin-dependent Manner” (Scientific Reports, 2016).
No constants are given. Whether binding was seen depends on the method and setting. Some entries that bind do so weakly or less than the wild type. Sequences can lack the tags named with a protein.

The chains behind the UniProt entries cited, without tags or fusion partners. Residues count along the entry.
UniProt P02675, residues 45-491: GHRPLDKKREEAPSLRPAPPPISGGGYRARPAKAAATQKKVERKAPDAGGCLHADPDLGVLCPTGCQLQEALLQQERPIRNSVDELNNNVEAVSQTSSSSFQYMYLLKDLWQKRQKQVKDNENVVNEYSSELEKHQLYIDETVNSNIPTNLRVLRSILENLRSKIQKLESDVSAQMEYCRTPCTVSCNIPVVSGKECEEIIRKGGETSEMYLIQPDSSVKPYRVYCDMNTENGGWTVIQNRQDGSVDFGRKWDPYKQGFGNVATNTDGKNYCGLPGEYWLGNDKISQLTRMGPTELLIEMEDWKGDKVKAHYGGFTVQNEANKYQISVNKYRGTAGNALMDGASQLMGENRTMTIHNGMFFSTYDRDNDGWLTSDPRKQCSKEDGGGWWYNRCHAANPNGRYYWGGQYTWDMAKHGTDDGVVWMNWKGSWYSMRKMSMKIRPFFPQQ

B1: hisMRP-N2 (a.a. 283-721 of muramidase-released protein, mainly consisting of β-sheets) (domain or fragment, UniProt P32653 283-721)
chain: TAVLAELVSRTTGDVLEKYTIEPGESVTFSHPTKVNANNSNITVTYDTSLASANTPGALKFSANDDVYSTIIVPAYQINTTRYVTESGKVLATYGLQTIAGQVVTPSSVRVFTGYDYVATTTKAVQGPYPKGTVYLAGTVQKDTVQYKVIREIVENDQAVLKFYYLDPTYKGEVDWRGTDTTGFIELLTTSPTTYKVGTIYDYNINSKITAPFTIDPTKNVMVFKESEQNEQGSKYRVIAQWSGDETTKGIYGKIYIATQVWTTKLGTNEWGWFDYSDDQAGIKFNNKGFWPAGVQNTLRNATPATAVETTYIYKESSKYGDVIVEYYDTDGKQIVNSVVDTPKSALGTEYNTDVDRRPASLVAADGTVYFYKEVKSDSAKTTGTVVAGTTTVKYVYEKAGSVNVNFVDINGKVIKAPVSDEKDAKPGYNYDTDLDQKL
modifications: biotin (in the far-Western and on the BLI biosensors)
B2: hisMRP-N (a.a. 48-721, the N-terminus of muramidase-released protein) (domain or fragment)
chain: DETVASSEPTIASSVAPASTEAVAEEAEKTNAENTSAVATTSTEVEKAKAVLEQVTSESPLLAGLGQKELAKTEDATLAKAIEDAQTKLAAAKAILADSEATVEQVEAQVAAVKVANEALGNELQKYTVDGLLTAALDTVAPDTTASTLKVGDGEGTLLDSTTTATPSMAEPNGAAIAPHTLRTQDGIKATSEPNWYTFESYDLYSYNKNMASSTYKGAEVDAYIRYSLDNDSSTTAVLAELVSRTTGDVLEKYTIEPGESVTFSHPTKVNANNSNITVTYDTSLASANTPGALKFSANDDVYSTIIVPAYQINTTRYVTESGKVLATYGLQTIAGQVVTPSSVRVFTGYDYVATTTKAVQGPYPKGTVYLAGTVQKDTVQYKVIREIVENDQAVLKFYYLDPTYKGEVDWRGTDTTGFIELLTTSPTTYKVGTIYDYNINSKITAPFTIDPTKNVMVFKESEQNEQGSKYRVIAQWSGDETTKGIYGKIYIATQVWTTKLGTNEWGWFDYSDDQAGIKFNNKGFWPAGVQNTLRNATPATAVETTYIYKESSKYGDVIVEYYDTDGKQIVNSVVDTPKSALGTEYNTDVDRRPASLVAADGTVYFYKEVKSDSAKTTGTVVAGTTTVKYVYEKAGSVNVNFVDINGKVIKAPVSDEKDAKPGYNYDTDLDQKL
modifications: biotin (in the far-Western and on the BLI biosensors)
notes: Muramidase-released protein (MRP) of Streptococcus suis serotype 2 strain 05ZYH33, gene SSU05_0753, residues 48-721; also called hisMRP-N_(48-721); source: cloned into pET-28a, expressed, purified by Ni-chelating chromatography

Molecular target: human fibrinogen Bβ chain (human) (UniProt P02675)
Experiment: far-Western, overlay or dot blot; purified hFg separated by reducing SDS-PAGE, transferred to PVDF, probed with biotinylated hisMRP proteins (20 μg/ml), detected with HRP-streptavidin; both purified

Row | Binder | binding
1 | B1 | binds
2 | B2 | binds
